Experimental data published in paper PMC8371905.
These are yes or no findings as the source states them, for the method shown. For part of these data: Binding seen in cells or lysates may run through a third protein. Some results given as binding are weak or reduced against the parent protein; the word gives no strength.

The chains behind the UniProt entries cited, without tags or fusion partners. Residues count along the entry.
UniProt Q96PZ7, residues 27-3564: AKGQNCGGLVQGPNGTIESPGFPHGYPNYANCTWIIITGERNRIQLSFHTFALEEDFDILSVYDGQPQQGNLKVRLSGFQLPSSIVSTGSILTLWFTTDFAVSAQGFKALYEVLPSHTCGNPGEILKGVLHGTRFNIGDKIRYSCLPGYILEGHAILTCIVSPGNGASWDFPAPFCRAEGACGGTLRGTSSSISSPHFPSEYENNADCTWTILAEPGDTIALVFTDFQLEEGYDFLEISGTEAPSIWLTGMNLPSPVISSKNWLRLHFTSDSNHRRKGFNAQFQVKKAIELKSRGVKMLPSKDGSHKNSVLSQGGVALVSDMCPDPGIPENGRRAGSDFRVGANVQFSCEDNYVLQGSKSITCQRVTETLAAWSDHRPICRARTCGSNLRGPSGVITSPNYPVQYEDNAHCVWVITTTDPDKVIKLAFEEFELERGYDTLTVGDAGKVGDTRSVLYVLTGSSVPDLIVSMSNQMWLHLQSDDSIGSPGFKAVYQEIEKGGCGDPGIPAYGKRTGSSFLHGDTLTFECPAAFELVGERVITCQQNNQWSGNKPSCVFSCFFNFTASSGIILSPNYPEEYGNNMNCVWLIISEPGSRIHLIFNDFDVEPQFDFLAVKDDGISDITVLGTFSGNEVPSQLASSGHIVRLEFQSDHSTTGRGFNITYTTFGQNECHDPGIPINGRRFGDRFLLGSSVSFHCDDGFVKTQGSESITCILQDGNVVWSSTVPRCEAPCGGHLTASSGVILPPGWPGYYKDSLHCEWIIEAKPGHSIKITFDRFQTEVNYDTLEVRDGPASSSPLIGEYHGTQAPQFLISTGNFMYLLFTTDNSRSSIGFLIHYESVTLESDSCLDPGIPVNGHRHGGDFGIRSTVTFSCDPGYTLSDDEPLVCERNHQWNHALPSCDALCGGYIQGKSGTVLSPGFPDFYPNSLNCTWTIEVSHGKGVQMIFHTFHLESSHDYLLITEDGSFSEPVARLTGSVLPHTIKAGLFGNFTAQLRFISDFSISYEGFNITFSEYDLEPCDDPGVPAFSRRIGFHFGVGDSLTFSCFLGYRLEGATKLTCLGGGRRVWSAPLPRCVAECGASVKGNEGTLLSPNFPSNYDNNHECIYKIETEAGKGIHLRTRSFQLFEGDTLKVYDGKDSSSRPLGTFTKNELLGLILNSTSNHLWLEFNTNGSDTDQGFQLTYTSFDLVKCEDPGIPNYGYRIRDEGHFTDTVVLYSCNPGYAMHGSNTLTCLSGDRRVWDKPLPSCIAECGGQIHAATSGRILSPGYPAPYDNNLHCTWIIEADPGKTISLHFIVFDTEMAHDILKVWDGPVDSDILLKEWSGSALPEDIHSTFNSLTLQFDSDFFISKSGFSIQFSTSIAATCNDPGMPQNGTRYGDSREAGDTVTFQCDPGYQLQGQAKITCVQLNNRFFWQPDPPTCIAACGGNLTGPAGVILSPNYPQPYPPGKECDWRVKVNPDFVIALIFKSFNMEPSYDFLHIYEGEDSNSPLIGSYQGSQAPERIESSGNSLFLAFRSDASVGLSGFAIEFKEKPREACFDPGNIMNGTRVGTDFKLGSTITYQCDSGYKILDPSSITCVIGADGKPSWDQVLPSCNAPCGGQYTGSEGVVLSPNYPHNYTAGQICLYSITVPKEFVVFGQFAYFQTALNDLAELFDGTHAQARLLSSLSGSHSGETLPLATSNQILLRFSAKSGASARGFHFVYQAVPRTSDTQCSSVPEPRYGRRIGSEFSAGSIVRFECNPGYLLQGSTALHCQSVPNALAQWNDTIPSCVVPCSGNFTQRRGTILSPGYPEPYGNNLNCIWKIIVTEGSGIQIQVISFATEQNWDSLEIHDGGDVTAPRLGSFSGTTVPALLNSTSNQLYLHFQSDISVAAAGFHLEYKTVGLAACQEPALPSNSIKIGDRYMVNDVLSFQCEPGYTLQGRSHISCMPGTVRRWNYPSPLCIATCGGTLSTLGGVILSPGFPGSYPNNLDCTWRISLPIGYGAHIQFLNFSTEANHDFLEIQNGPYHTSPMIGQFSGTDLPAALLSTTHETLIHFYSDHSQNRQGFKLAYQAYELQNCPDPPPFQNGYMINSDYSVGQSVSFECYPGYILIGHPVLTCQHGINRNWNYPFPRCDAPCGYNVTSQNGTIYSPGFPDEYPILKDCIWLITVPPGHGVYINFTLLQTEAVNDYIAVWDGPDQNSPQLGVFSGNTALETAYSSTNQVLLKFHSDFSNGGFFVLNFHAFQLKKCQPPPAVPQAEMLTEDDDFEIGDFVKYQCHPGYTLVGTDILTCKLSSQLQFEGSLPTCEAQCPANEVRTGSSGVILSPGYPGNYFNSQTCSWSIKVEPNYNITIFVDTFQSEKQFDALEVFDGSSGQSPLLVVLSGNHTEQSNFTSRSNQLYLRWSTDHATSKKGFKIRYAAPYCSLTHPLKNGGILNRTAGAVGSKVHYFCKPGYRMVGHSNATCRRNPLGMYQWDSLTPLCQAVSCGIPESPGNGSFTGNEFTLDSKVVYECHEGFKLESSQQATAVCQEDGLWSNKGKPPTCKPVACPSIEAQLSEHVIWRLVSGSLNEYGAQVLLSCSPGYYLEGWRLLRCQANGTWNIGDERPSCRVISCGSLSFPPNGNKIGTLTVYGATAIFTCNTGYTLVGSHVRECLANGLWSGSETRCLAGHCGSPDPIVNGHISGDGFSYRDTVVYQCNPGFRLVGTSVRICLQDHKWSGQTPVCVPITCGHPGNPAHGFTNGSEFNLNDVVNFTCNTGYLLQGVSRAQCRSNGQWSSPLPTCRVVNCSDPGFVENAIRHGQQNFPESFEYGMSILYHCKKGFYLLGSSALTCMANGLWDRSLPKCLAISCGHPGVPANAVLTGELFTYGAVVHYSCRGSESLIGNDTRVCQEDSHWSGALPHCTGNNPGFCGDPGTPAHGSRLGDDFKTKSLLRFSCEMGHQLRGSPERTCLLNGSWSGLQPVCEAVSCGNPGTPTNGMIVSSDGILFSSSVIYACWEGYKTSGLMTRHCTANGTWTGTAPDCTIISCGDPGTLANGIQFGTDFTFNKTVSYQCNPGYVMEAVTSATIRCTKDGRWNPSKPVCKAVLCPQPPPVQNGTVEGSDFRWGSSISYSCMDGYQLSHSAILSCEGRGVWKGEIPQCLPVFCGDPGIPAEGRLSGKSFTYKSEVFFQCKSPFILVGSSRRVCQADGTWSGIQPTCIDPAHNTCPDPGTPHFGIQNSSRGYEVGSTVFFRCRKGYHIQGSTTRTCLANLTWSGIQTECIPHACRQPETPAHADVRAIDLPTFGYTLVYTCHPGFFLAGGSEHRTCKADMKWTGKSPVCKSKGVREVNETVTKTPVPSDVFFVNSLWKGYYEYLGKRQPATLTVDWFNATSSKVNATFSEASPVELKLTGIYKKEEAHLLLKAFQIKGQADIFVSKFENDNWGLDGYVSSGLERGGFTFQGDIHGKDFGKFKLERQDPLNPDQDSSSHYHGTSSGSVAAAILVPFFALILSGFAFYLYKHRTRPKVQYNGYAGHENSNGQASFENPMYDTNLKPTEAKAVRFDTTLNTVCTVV

Legend:
[1] = molecular target: Human CUB and Sushi multiple domains 1 (CSMD1) (human) (UniProt Q96PZ7); assay: co-IP; BT-20 cell lysates immunoprecipitated with anti-CSMD1 or corresponding IgG control, immunodetection of EGFR and CSMD1
[2] = molecular target: Human CUB and Sushi multiple domains 1 (CSMD1) (human) (UniProt Q96PZ7); assay: co-IP; MDA-MB-231 CTRL and CSMD1 cell lysates in minimally denaturing conditions; 1 mg total protein, Protein G or A Dynabeads pre-coated with 5 ug capturing antibody (anti-EGFR or anti-CSMD1, isotype IgG control), overnight, washed with NP40 buffer; Western blot
[3] = molecular target: Epidermal Growth Factor Receptor (EGFR) (human (endogenous in MDA-MB-231 and BT-20)) (UniProt P00533); assay: proximity ligation; Dual link kit (Sigma) on fixed (4% formaldehyde), permeabilised (0.1% Triton X-100) MDA-MB-231 CTRL and CSMD1 cells; anti-CSMD1 and anti-EGFR antibodies; dots per cell counted
[4] = molecular target: Epidermal Growth Factor Receptor (EGFR) (human (endogenous in MDA-MB-231 and BT-20)) (UniProt P00533); assay: co-IP; MDA-MB-231 CTRL and CSMD1 cell lysates in minimally denaturing conditions; 1 mg total protein, Protein G or A Dynabeads pre-coated with 5 ug capturing antibody (anti-EGFR or anti-CSMD1, isotype IgG control), overnight, washed with NP40 buffer; Western blot
[5] = molecular target: Epidermal Growth Factor Receptor (EGFR) (human (endogenous in MDA-MB-231 and BT-20)) (UniProt P00533); assay: ELISA; anti-EGFR antibody immobilised to capture EGFR complexes from MDA-MB-231 lysates (non-denatured conditions), detected with anti-CSMD1 antibody; two CSMD1 clones
[6] = molecular target: Myc-tagged intracellular domain of EGFR (ICD), pcDNA6A-EGFR ICD (645–1186) (UniProt P00533); assay: ELISA; anti-c-myc capturing antibody immobilised, incubated with lysates of MDA-MB-231 CTRL and CSMD1 cells transiently transfected with Myc-ECD-EGFR or Myc-ICD-EGFR, detected with anti-CSMD1 antibody; two CSMD1 clones

Measured: binding

Epidermal Growth Factor Receptor (EGFR) (from UniProt P00533 25-1210)
binds: [1] | [2]

Human CUB and Sushi multiple domains 1 (CSMD1) (from UniProt Q96PZ7 27-3564)
binds: [3] | [4] | [5] | [6]
